Results on one molecule are retold here after PMC5107993, “Glutathione-conjugating and membrane-remodeling activity of GDAP1 relies on amphipathic C-terminal domain” (Scientific Reports, 2016).

Results are given in words; binding and its absence hold for the method and conditions named. In cells and extracts the contact can be indirect. Some entries that bind do so weakly or less than the wild type.

In this assay the target is T1, human GDAP1 T288X (truncation lacking the TMD and HD1) (human) (UniProt Q8TB36).
T1 sequence: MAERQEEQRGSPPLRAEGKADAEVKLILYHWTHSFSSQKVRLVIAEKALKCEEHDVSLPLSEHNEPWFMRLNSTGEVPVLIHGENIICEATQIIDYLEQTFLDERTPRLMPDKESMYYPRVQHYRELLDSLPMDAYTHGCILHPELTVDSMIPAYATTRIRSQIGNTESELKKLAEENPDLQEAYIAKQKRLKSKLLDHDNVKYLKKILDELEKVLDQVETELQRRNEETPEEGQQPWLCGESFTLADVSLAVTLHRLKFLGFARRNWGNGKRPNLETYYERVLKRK
Description: co-IP; human and mouse forms co-expressed in HEK-293T; IP with human-specific anti-GDAP1 serum on Protein A-Sepharose, 2 h; lysis buffer 50 mM Tris pH 7.5, 150 mM NaCl, 1 mM EDTA, 1% Triton X-100; immunoblot for the mouse form.

B1: mouse Gdap1 T288X (truncation lacking the TMD and HD1) (domain or fragment, UniProt O88741 1-287)
chain: MARRQDEARAGVPLRVEGPPDKEVHLILYHWTHSFSSQKVRLVIAEKALKCEEHDVSLPLSEHNEPWFMRLNSAGEVPVLVHGENIICEATQIIDYLEQTFLDERTPRLMPDEGSMYYPRVQHYRELLDSLPMDAYTHGCILHPELTVDSMIPAYATTRIRSQIGNTESELKKLAEENPDLQEAYIAKQKRLKSKLLDHDNVKYLKKILDELEKVLDQVETELQRRNEETPEEGNQPWLCGESFTLADVSLAVTLHRLKFLGFARRNWGHGKRPNLETYYERVLKRK
Consider B1, for which the binding entry is on record as “binds”.
